Patent US20250145696A1 (BIOVERATIV USA, published 2025)
These are yes or no findings as the source states them, for the method shown. Some binding calls cover weakened binding; strength is not graded here.

Target: T1, human C1s (human, UniProt P09871 16-688)
T1 sequence: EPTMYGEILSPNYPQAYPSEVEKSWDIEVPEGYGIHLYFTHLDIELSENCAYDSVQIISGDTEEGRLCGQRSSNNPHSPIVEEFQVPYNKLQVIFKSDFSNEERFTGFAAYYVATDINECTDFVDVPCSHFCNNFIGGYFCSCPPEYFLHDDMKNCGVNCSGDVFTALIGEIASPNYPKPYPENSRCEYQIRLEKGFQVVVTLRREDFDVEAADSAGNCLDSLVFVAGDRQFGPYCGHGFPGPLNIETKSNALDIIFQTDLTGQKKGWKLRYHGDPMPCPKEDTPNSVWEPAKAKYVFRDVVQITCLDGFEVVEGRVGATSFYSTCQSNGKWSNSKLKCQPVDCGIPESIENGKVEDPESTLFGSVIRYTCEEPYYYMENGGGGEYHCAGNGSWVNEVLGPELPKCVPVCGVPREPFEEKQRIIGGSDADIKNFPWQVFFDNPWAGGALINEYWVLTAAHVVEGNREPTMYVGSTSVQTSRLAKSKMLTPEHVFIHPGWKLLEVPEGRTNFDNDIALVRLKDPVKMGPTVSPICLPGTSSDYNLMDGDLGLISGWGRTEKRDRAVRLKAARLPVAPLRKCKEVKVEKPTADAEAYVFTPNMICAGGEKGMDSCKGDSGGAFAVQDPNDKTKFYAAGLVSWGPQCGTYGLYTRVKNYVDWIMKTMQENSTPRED
Experiment: direct binding ELISA for serum BIVV009: C1s-coated plates, goat anti-human HRP secondary antibody, TMB

B1: BIVV009 (antibody, human IgG4 S228P, kappa, V domains shown)
VH: EVQLVESGGGLVKPGGSLRLSCAASGFTFSNYAMSWVRQAPGKGLEWVATISSGGSHTYYLDSVKGRFTISRDNSKNTLYLQMNSLRAEDTALYYCARLFTGYAMDYWGQGTLVTVSS
VL: QIVLTQSPATLSLSPGERATMSCTASSSVSSSYLHWYQQKPGKAPKLWIYSTSNLASGVPSRFSGSGSGTDYTLTISSLQPEDFATYYCHQYYRLPPITFGQGTKLEIKR
binding: binds
